{"source": "patent US20060275806", "tested_on": "NheI restriction endonuclease", "assay": "enzyme reaction in vitro", "conditions": "5mC in AGCT (AluI methylase); cleavage blocked by AluI methylation; optical mapping; purified recombinant protein", "note": "Construct, isoform or probe ends are uncertain for at least one entry. Negatives hold for the conditions tested."}
{"sequence": "AGCTAGC (double strand) [E. coli genomic DNA, AluI-methylated NheI site]", "values": [{"measurement": "activity on this sequence", "result": "not active"}]}
